# Tested on: LCT gene
# Assay: Transcriptome microarray analysis of LCT mRNA expression in Caco-2 cells treated with PPARγ modulators
# Assay type: cell-based, human
# Settings: rank of LCT among regulated genes
# Experimental: Caco-2 (colonic adenocarcinoma) cells were grown in Dulbecco's Modified Eagle's Medium (DMEM, Invitrogen, Life Technologies, Cergy-Pontoise, France) supplemented with 20% foetal calf serum (FCS, Dutscher, Brumath, France), 1% penicillin-streptomycin (5 ml/l) (Invitrogen, Life technologies) and 1% non-essential amino acids (5 ml/l) (Invitrogen, Life technologies). All cell lines were cultured as confluent monolayers at 37° C. in a controlled, 5% CO2 atmosphere.
# For cell stimulations, 1×10^6 cells per well were seeded in 6-well plates. Cells were serum deprived for 16 hours prior to stimulation in order to synchronize the cells. Cells were treated with GED (Nogra Pharma Ltd, Ireland), pioglitazone (1 μM, Sigma-Aldrich) or CLA (various concentrations, Sigma-Aldrich). When necessary, the DMSO vehicle (Sigma-Aldrich) was used as control. After 24 hours of stimulation, cells were washed three times with sterile PBS before RNA extraction. Cell stimulations were performed in 4 replicates for microarray analysis and in 3, 4 or 6 replicates for other stimulations.
# Cells were lysed with lysis buffer (RA1, Macherey-Nagel) containing 1% β-mercaptoethanol. Total RNA was extracted with a Nucleospin RNA kit (Macherey-Nagel, Hoerdt, France). […] The purity of the RNA was evaluated by UV spectroscopy on a Nanodrop system (Nyxor Biotech, Paris, France) from 220 to 350 nm. […]
# Dual-colour gene expression microarrays were used to compare the cRNA from the samples. […] The RNAs from the samples were first reverse-transcribed into cDNA (Affinity-Script RT, Agilent), which were then used as the substrate for the synthesis and amplification of cRNA by T7 RNA polymerase in the presence of cyanine 3-CTP for the CTL sample (green fluorescence) and cyanine 5-CTP for the PPAR-γ y modulator sample (red fluorescence). […] Fluorescence was visualized after laser excitation and the relative intensities of the two fluorophores were expressed as a ratio, in order to yield the over- or under-expression status of each gene (using GeneSpring software (Agilent)). […]
Structure (SMILES),Rank (30 mM),Rank (1 mM)
"Nc1ccc(O)c(C(=O)O)c1 [5ASA, 5-aminosalicylic acid]",16/1574,–
"COC(Cc1ccc(N)cc1)C(=O)O (stereo not drawn) [GED, 3-(4′-aminophenyl)2-methoxypropionic acid]",1/355,1/46

# Reference: US20190046490A1, “METHODS OF TREATING LACTOSE INTOLERANCE” (Nogra Pharma Limited, priority 2016, published 2019)
